The record followed here is patent publication US20190322750A1.

By UniProt entry, the sequences of proteins in these tests, tags left out. Residues count along the entry.
UniProt Q9NZQ7, residues 19-239: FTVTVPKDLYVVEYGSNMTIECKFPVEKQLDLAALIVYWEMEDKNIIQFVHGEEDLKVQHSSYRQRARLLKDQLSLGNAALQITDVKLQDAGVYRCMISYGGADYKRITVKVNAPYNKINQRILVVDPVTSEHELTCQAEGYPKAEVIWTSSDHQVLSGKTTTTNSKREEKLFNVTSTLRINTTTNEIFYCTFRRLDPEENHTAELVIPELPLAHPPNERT

Results are given in words; binding and its absence hold for the method and conditions named. Some entries that bind do so weakly or less than the wild type.

In experiment [1] the target is antigen PD-L1 coated on the immunoplate in the monoclonal scFv-phage ELISA (UniProt Q9NZQ7). The experiment can be described thus: monoclonal scFv-phage ELISA on coated antigen PD-L1.
For experiment [2] the target is unchanged. Kind of experiment: monoclonal scFv-phage ELISA on coated antigen PD-L1; reference: parent 16E12. For orientation: ELISA stands for enzyme-linked immunosorbent assay.

B1: PDL1-23E10 (scFv, V domains shown)
VH: QMQLVESGAEVKKPGSSVKVSCKVSGENFRSHAISWVRQAPGQGLEWMGRIIPIVGLADYPQKFQGRVTISADESTGTAYMDLSSLRSEDTAVYYCVTGRPPWHWGQGILITVSS
VL: QLVLTQPPSVSGAPGQRVTISCTGSSSNIGAGYDVHWYQQLPGTAPKLLIYSNRNRPSGVPDRFSGSKSGTSASLAITGLQAEDEADYYCQSYDSSLSGPNYVFGTGTKVTVL
Consider B1, for which, in experiment [1], the binding result is recorded as “binds”.

B2: PDL1-16E12 (LS/4B7) (scFv, V domains shown)
VH: QMQLVQSGAEVKKPGSSVKVSCKASGGTFSSYAISWVRQAPGQGLEWMGRIIPILGIANYAQKFQGRVTITADKSTSTAYMELSSLRSEDTAVYYCAKPRDGYNLVAFDIWGQGTMVTVSS
VL: QLVLTQPPSVSGAPGQRVTISCTGTNSNIGAGYDVHWYQQLPGTAPKLLIVTNHNRPSGVPDRFSGSKSDTSASLALTGLQAEDEATYYCQSYDSRLSGPVFGTGTKVTVL
With B2, in experiment [2], the binding result is listed as “binds”.
